Measurements from patent US6907280B2, “Method and apparatus for objectively measuring pain, pain treatment and other related techniques” (The General Hospital Corporation, priority 1999, dated 2005).

System: NAc brain region
Settings: 46° C. stimulus

## CN1CC[C@]23c4c5ccc(O)c4O[C@H]2[C@@H](O)C=C[C@H]3[C@H]1C5 [morphine]
Morphine 4 mg/70 kg i.v., heat plus saline 2%
  Magnitude of NAc signal decrease to thermal pulse: ~1%
Morphine vs saline curve
  Effect on negatively valenced NAc response to noxious heat: attenuates the response
